Results from one PubChem assay

The results are deposited in PubChem (AID1159506; NCATS, 2015).

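Genome-wide siRNA knockdown in TC32 Ewing sarcoma cells, comparing luciferase light from an NR0B1-promoter reporter with a CMV-promoter reporter 48 hours after transfection. Each siRNA was applied at 20 nM. A z-score of the log NR0B1-over-CMV signal, less the median of siRNAs with the same seed; more negative means a stronger specific loss of the NR0B1 reporter.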

This is part of the screen; most of the strongest results are not listed here. Sequences are the guide (antisense) strand, without overhang.

UUGGAGAUGAUGAGCGUGG against SLC4A2 read seed-corrected z-score 0.4339.
UCUAUAACCUUAAUGUUGG against PYROXD1 read seed-corrected z-score 1.407.
UGAUGAGUGGGACACCUCC against ARMC7 read seed-corrected z-score -0.2708.
UUCUGAACUGUAACAAUCC against DDX58 read seed-corrected z-score 0.1204.
UUGUUAUAGAGUACGAUGU against CHRNA10 read seed-corrected z-score 0.8855.
AACAGUUUGGUGACGAUGC against FGF11 read seed-corrected z-score 0.3618.
UUCCGAAUCAGCAACUCGG against HIST1H3B read seed-corrected z-score 0.9276.
AAAAGAUAAUGGUUUUCUG against OR2K2 read seed-corrected z-score -0.02499.
UACUUUGAUGGAGUGUUCC against ARMC12 read seed-corrected z-score -1.127.
UUAAGAGCAACAAGGCUGC against GCN1 read seed-corrected z-score -0.4411.
AAGUUCAUCAGCUCCGUGG against GABRD read seed-corrected z-score 0.9397.
AAAGGUAUUCAUUCGUACC against PTPN4 read seed-corrected z-score -0.1247.
UCAUGUCUGCCGUCUCUGC against CABP2 read seed-corrected z-score -0.7272.
AAGUGAAUUCGUCCAAUCG against GRM2 read seed-corrected z-score 0.5881.
UAUCUGGUUACUGAGUUCC against FAM81A read seed-corrected z-score -0.1893.
UGAGCGAUAUCUUUUGGUG against DYNC2LI1 read seed-corrected z-score -0.06643.
UUUACAUCUGUAGGUAUUC against ZNF429 read seed-corrected z-score 0.04186.
UUCGCAGCGAGCUAGGAUC against GLI1 read seed-corrected z-score -0.4504.
UUUUGUCUUUGAGGUAUUG against ARHGAP8 read seed-corrected z-score 0.9116.
ACAGUAUUGGCAAUUCAGA against FBRSL1 read seed-corrected z-score 1.004.
UACGUCUCUUGGUUAAGUC against THOC2 read seed-corrected z-score 0.08659.
AACCGUUCAGCUCUGAACC against GSKIP read seed-corrected z-score 0.1287.
UCCUCUAUCUGACAACUCC against INO80D read seed-corrected z-score -0.5183.
UCCACGUCCAUGGUCACCA against ANAPC2 read seed-corrected z-score -0.3625.
UCUGGGUCUUCUCAAACUC against BCAR1 read seed-corrected z-score -1.128.

Once more, the final 2:

Sequence,gene,seed-corrected z-score
UCCACGUCCAUGGUCACCA,ANAPC2,-0.3625
UCUGGGUCUUCUCAAACUC,BCAR1,-1.128